The values below come from the supplement of paper PMC10398353.

Counter-ions that a name gives are not always drawn. ± gives the standard deviation of the averaged measurements. This is one part of the list. Single values of this set are uncertain.

The subject of the assay is Salmonella enterica serovar Typhimurium ST313 D23580. Description: normalized bacterial growth (OD600 20 h minus 0 h, interquartile-mean normalized) (fraction of plate interquartile mean); higher = more bacterial growth (less inhibition). To be noted: LPM (pH 5.8, low phosphate, low Mg2+), concentration: 10 µM, temperature: 37 °C.
On to `CC(=O)Nc1cc2ccccc2oc1=O` [3-Acetamidocoumarin], for which the normalized bacterial growth is 1.09. As for `COc1ccc(/C=C/C(=O)O)cc1OC`, the figure is 1.34. `CCCCC(=O)O[C@H]1CC[C@H]2[C@@H]3CCc4cc(O)ccc4[C@H]3CC[C@]12C`: the normalized bacterial growth stood at 1.14.

Molecule `O=C(OC[C@H]1O[C@@H](OC(=O)c2cc(O)c(O)c(OC(=O)c3cc(O)c(O)c(O)c3)c2)[C@H](OC(=O)c2cc(O)c(O)c(OC(=O)c3cc(O)c(O)c(O)c3)c2)[C@@H](OC(=O)c2cc(O)c(O)c(OC(=O)c3cc(O)c(O)c(O)c3)c2)[C@@H]1OC(=O)c1cc(O)c(O)c(OC(=O)c2cc(O)c(O)c(O)c2)c1)c1cc(O)c(O)c(OC(=O)c2cc(O)c(O)c(O)c2)c1` gave a normalized bacterial growth of 0.709. As to `COc1ccc2oc(-c3ccccc3OC)cc(=O)c2c1`, the normalized bacterial growth was determined as 0.754. Molecule `Fc1ccc(C(c2ccc(F)cc2)N2CCN(C/C=C/c3ccccc3)CC2)cc1` [Flunarizine dihydrochloride] displayed a normalized bacterial growth of 0.989. For `CN1CCc2c(c3ccccc3n2Cc2ccccc2)C1`, the normalized bacterial growth was found to be 1.22.

In the case of `Cc1oncc1C(=O)Nc1ccc(C(F)(F)F)cc1` [Leflunomide], the normalized bacterial growth was determined as 1.12. For `COc1ccc(C(Cl)=C(c2ccc(OC)cc2)c2ccc(OC)cc2)cc1` the value was 1.06; for `O=C(O)c1cccnc1Nc1cccc(C(F)(F)F)c1` [Niflumic acid], 0.858. For `Cc1cn(C2C=CC(CO)O2)c(=O)[nH]c1=O` (stereo not given) ["2',3'-didehydro-3'-deoxythymidine"] the value was 0.938; for `O=C(O)c1cccc(O)c1O`, 1.01.

`CC(CCc1ccccc1)NCC(O)c1ccc(O)c(C(N)=O)c1` (stereo not given) [Labetalol hydrochloride] had a normalized bacterial growth of 1.02. `CCOC(=O)[C@H](CCc1ccccc1)N[C@@H](C)C(=O)N1Cc2ccccc2C[C@H]1C(=O)O` came in with a normalized bacterial growth of 0.735. As for `Cc1cc(O)c(C=O)c2c1C(=O)Oc1c(C)c(O)c3c(c1O2)C(O)OC3=O` (stereo not given), the figure is 0.399.

In turn, `CN1C(C)(C)CCCC1(C)C` [Pempidine tartrate] registered a normalized bacterial growth of 0.923.

For the molecule `Cc1onc(-c2c(Cl)cccc2Cl)c1C(=O)N[C@@H]1C(=O)N2[C@@H]1SC(C)(C)[C@@H]2C(=O)O` [Dicloxacillin sodium salt], the normalized bacterial growth stood at 0.923. In turn, `Cc1onc(-c2c(Cl)cccc2Cl)c1C(=O)N[C@@H]1C(=O)N2[C@@H]1SC(C)(C)[C@@H]2C(=O)O` came in with a normalized bacterial growth of 0.893.

Take `COc1cc(OC)c(C(C)=O)c(O)c1C`: the normalized bacterial growth was determined as 1.08.

Molecule `CN(C)/N=N/c1[nH]cnc1C(N)=O` returned a normalized bacterial growth of 1.06. For `CN(C)/N=N/c1[nH]cnc1C(N)=O` [Dacarbazine] the value was 0.87; for `CCCCCC[C@@H]([C@@H](C)O)n1cnc2c(N)ncnc21` [erythro-9-(2-Hydroxy-3-nonyl)adenine hydrochloride], 0.865. As for `C[N+](C)(C)CCCCCC[N+](C)(C)C` [Hexamethonium bromide], the figure is 1.11. With `C[N+](C)(C)CCCCCC[N+](C)(C)C` [Hexamethonium dibromide dihydrate], the normalized bacterial growth was found to be 1.08. On to `C[N+](C)(C)CCCCCC[N+](C)(C)C` [Hexamethonium dichloride], for which the normalized bacterial growth was 1.37. With `CC1C(=O)OC2C(O)C34C5CC(C(C)(C)C)C36C(OC(=O)C6O)OC4(C(=O)O5)C12O` (stereo not given), the normalized bacterial growth was determined as 1.06. As for `CCCCCCCCc1ccc(-c2ccc(C(=O)O)cc2)cc1`, the figure is 1.03. For `CC[N+](C)(C)Cc1ccccc1Br` [Bretylium tosylate] the value was 1.19 ± 0.063; for `CN1CCc2cc(O)c(O)cc2C(c2ccccc2)C1` (stereo not given), 0.00791; for `CC1(C)CC[C@]2(C)CC[C@]3(C)C(=CC[C@@H]4[C@@]5(C)CC[C@H](O)C(C)(C)[C@@H]5CC[C@]43C)[C@@H]2C1` [beta-AMYRIN], 1.17. As for `O=c1cc(-c2ccc(O)cc2)oc2cc(O)c([C@@H]3O[C@H](CO)[C@@H](O)[C@H](O)[C@H]3O)c(O)c12`, the figure is 0.861; as for `Cc1cc2c(cc1S(N)(=O)=O)S(=O)(=O)CCC2` [Meticrane], 1.13. Turning to `COC(=O)Nc1nc2cc(C(=O)c3ccccc3)ccc2[nH]1`, the normalized bacterial growth is 1.02. `CC1(C)S[C@@H]2[C@H](NC(=O)[C@H](NC(=O)N3CCNC3=O)c3ccccc3)C(=O)N2[C@H]1C(=O)O` [Azlocillin sodium salt] returned a normalized bacterial growth of 1.14. Take `CC1(C)S[C@@H]2[C@H](NC(=O)[C@H](NC(=O)N3CCNC3=O)c3ccccc3)C(=O)N2[C@H]1C(=O)O`: the normalized bacterial growth is 1.26. As for `COc1c(-c2coc3cc4c(cc3c2=O)CC(OC(C)=O)C(C)(C)O4)ccc2c1C=CC(C)(C)O2` (stereo not given), the figure is 0.786. As for `NC(=O)c1cc[n+](CC2=C(C(=O)O)N3C(=O)[C@@H](NC(=O)[C@@H](c4ccccc4)S(=O)(=O)[O-])[C@H]3SC2)cc1`, the figure is 1.11; as for `CCCCCCc1ccc(O)cc1O.Nc1c2ccccc2nc2ccccc12`, 0.997. Turning to `C[C@@H]1O[C@@H](OC[C@H]2O[C@@H](Oc3cc(O)c4c(c3)O[C@H](c3ccc(O)cc3)CC4=O)[C@H](O)[C@@H](O)[C@@H]2O)[C@H](O)[C@H](O)[C@H]1O`, the normalized bacterial growth was 0.824. As for `COc1cc(O)c2c(c1)oc(=O)c1c3cc(O)c(O)cc3oc21`, the figure is 0.96; as for `COC(=O)[C@H]1[C@H]2C[C@H]3c4[nH]c5ccccc5c4CCN3C[C@@H]2CC[C@@H]1O`, 0.986 ± 0.016; as for `COC(=O)[C@H]1[C@H]2C[C@H]3c4[nH]c5ccccc5c4CCN3C[C@@H]2CC[C@@H]1O` [Corynanthine hydrochloride], 1.18.

In the case of `CC(=O)Nc1ccccc1`, the normalized bacterial growth worked out at 1.29. For `CSc1ccc2c(c1)C(N1CCN(C)CC1)Cc1ccccc1S2` (stereo not given) [Methiothepin mesylate] the value was 0.979; for `CSc1ccc2c(c1)C(N1CCN(C)CC1)Cc1ccccc1S2` (stereo not given) [Methiothepin maleate], 1.15. For `COc1ccc2c(=O)c(-c3cc4c(cc3OC)OCO4)coc2c1` the value was 1.2; for `Cc1ccc(O)c(N=Nc2ccccc2)n1`, 0.909; for `COc1ccc2c(c1)OC/C(=C\c1ccc(OC)c(O)c1)C2=O`, 0.972. `C[C@]1(OC(=O)/C=C/c2ccccc2)C[C@@H](O)[C@]2(O)C=CO[C@@H](O[C@@H]3O[C@H](CO)[C@@H](O)[C@H](O)[C@H]3O)[C@@H]21` [Harpagoside] registered a normalized bacterial growth of 1.14. As for `C[C@]1(OC(=O)/C=C/c2ccccc2)C[C@@H](O)[C@]2(O)C=CO[C@@H](O[C@@H]3O[C@H](CO)[C@@H](O)[C@H](O)[C@H]3O)[C@@H]21`, the figure is 1.11.
